B1: ZNF281 (protein, UniProt Q9Y2X9 1-895, looked up)
Zinc finger protein 281: MKIGSGFLSGGGGTGSSGGSGSGGGGSGGGGGGGSSGRRAEMEPTFPQGMVMFNHRLPPVTSFTRPAGSAAPPPQCVLSSSTSAAPAAEPPPPPAPDMTFKKEPAASAAAFPSQRTSWGFLQSLVSIKQEKPADPEEQQSHHHHHHHHYGGLFAGAEERSPGLGGGEGGSHGVIQDLSILHQHVQQQPAQHHRDVLLSSSSRTDDHHGTEEPKQDTNVKKAKRPKPESQGIKAKRKPSASSKPSLVGDGEGAILSPSQKPHICDHCSAAFRSSYHLRRHVLIHTGERPFQCSQCSMGFIQKYLLQRHEKIHSREKPFGCDQCSMKFIQKYHMERHKRTHSGEKPYKCDTCQQYFSRTDRLLKHRRTCGEVIVKGATSAEPGSSNHTNMGNLAVLSQGNTSSSRRKTKSKSIAIENKEQKTGKTNESQISNNINMQSYSVEMPTVSSSGGIIGTGIDELQKRVPKLIFKKGSRKNTDKNYLNFVSPLPDIVGQKSLSGKPSGSLGIVSNNSVETIGLLQSTSGKQGQISSNYDDAMQFSKKRRYLPTASSNSAFSINVGHMVSQQSVIQSAGVSVLDNEAPLSLIDSSALNAEIKSCHDKSGIPDEVLQSILDQYSNKSESQKEDPFNIAEPRVDLHTSGEHSELVQEENLSPGTQTPSNDKASMLQEYSKYLQQAFEKSTNASFTLGHGFQFVSLSSPLHNHTLFPEKQIYTTSPLECGFGQSVTSVLPSSLPKPPFGMLFGSQPGLYLSALDATHQQLTPSQELDDLIDSQKNLETSSAFQSSSQKLTSQKEQKNLESSTGFQIPSQELASQIDPQKDIEPRTTYQIENFAQAFGSQFKSGSRVPMTFITNSNGEVDHRVRTSVSDFSGYTNMMSDVSEPCSTRVKTPTSQSYR
B2: PHF10 (protein, UniProt Q8WUB8 2-498, looked up)
PHD finger protein 10: AAAAGPGAALSPRPCDSDPATPGAQSPKDDNEDNSNDGTQPSKRRRMGSGDSSRSCETSSQDLGFSYYPAENLIEYKWPPDETGEYYMLQEQVSEYLGVTSFKRKYPDLERRDLSHKEKLYLRELNVITETQCTLGLTALRSDEVIDLMIKEYPAKHAEYSVILQEKERQRITDHYKEYSQMQQQNTQKVEASKVPEYIKKAAKKAAEFNSNLNRERMEERRAYFDLQTHVIQVPQGKYKVLPTERTKVSSYPVALIPGQFQEYYKRYSPDELRYLPLNTALYEPPLDPELPALDSDGDSDDGEDGRGDEKRKNKGTSDSSSGNVSEGESPPDSQEDSFQGRQKSKDKAATPRKDGPKRSVLSKSVPGYKPKVIPNAICGICLKGKESNKKGKAESLIHCSQCENSGHPSCLDMTMELVSMIKTYPWQCMECKTCIICGQPHHEEEMMFCDMCDRGYHTFCVGLGAIPSGRWICDCCQRAPPTPRKVGRRGKNSKEG
B3: CHTOP (protein, UniProt Q9Y3Y2 2-248, looked up)
Chromatin target of PRMT1 …: AAQSAPKVVLKSTTKMSLNERFTNMLKNKQPTPVNIRASMQQQQQLASARNRRLAQQMENRPSVQAALKLKQSLKQRLGKSNIQARLGRPIGALARGAIGGRGLPIIQRGLPRGGLRGGRATRTLLRGGMSLRGQNLLRGGRAVAPRMGLRRGGVRGRGGPGRGGLGRGAMGRGGIGGRGRGMIGRGRGGFGGRGRGRGRGRGALARPVLTKEQLDNQLDAYMSKTKGHLDAELDAYMAQTDPETND

Test system: BAF complex subunits and histone proteins
Assay: Mass spectrometry proteomics of purified HA-SS18 WT and HA-SS18-SSX1 complexes (Tables 5A-5E)
Design: species or system human
Details: HEK-293T
[1] = HA-SS18SSX1_CHR_peptides: proteins found in HA-SS18-SSX1 BAF complex purification from solubilized chromatin (CHR)
[2] = HA-SS18WT_NE_peptides: proteins co-purified with HA-SS18 WT from nuclear extract (NE)

Row | Molecule | Total (peptides) [1] | Unique (peptides) [1] | Total (peptides) [2] | Unique (peptides) [2]
1 | B1 | 1 | 1 | 2 | 2
2 | B2 | 1 | 1 | 1 | 1
3 | B3 | 1 | 1 |  | 
